Results from article doi:10.1101/286708.
Substitutions are numbered along the chain they refer to. No constants are given. Whether binding was seen depends on the method and setting. In cells and extracts the contact can be indirect. Some entries that bind do so weakly or less than the wild type. Where a sequence is shown, tags or fusion partners need not be part of it.

By UniProt entry, the sequences of proteins in these tests, tags left out.
UniProt Q00987: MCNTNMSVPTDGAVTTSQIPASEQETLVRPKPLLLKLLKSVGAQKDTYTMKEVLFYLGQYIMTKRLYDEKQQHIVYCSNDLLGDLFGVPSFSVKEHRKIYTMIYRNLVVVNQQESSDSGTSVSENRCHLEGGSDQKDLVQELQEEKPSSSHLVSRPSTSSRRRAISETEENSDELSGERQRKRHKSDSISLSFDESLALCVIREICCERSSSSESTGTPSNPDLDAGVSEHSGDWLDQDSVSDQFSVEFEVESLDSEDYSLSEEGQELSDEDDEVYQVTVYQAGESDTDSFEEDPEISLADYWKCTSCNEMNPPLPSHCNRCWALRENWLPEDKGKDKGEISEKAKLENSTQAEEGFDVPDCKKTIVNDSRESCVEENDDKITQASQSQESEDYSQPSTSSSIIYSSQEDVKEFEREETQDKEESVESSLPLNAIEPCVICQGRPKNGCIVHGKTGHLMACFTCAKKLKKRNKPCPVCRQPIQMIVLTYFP

Columns and labels:
[1] = biological target: T1, FLAG-PER2(S662A) expressed in HCT116 p53+/+ cells (human) (UniProt O15055); assay: co-IP
T1 sequence: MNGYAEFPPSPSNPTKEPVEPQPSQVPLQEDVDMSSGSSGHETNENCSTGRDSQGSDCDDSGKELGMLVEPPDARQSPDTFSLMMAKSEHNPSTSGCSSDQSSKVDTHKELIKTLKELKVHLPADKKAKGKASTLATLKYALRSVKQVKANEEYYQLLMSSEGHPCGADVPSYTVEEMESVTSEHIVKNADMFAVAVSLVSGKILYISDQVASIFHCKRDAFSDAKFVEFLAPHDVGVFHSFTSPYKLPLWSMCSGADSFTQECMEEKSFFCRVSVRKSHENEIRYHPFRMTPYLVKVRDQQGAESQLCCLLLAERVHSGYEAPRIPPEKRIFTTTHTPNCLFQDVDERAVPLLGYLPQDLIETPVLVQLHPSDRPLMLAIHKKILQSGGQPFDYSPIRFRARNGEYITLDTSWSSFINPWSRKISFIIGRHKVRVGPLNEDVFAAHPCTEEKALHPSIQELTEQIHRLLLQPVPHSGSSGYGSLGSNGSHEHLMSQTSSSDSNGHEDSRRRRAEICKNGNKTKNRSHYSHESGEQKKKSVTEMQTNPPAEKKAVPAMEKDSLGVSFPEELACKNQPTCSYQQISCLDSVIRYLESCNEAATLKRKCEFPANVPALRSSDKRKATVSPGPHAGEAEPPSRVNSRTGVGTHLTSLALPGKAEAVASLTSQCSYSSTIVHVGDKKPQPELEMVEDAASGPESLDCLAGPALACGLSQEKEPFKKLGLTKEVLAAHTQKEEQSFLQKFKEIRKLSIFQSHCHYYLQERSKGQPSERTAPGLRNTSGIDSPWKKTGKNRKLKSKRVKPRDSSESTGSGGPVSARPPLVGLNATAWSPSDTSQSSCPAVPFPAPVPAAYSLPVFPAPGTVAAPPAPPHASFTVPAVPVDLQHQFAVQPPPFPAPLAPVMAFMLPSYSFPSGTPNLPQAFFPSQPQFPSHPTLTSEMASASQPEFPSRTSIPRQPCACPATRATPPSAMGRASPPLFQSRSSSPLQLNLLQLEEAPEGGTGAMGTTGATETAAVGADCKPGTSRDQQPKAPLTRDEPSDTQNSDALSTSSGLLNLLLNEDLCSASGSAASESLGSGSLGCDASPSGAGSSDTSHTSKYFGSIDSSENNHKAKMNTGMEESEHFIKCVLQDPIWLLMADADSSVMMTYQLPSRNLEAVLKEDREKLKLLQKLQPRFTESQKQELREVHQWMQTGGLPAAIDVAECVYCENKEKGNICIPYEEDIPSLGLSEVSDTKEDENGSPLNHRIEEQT

[2] = biological target: T2, FLAG-PER2(S480A) expressed in HCT116 p53+/+ cells (human) (UniProt O15055); assay: co-IP
T2 sequence: T1 sequence with S480A, A662S

Question: What does the source list for “endogenous MDM2 of HCT116 p53+/+ cells (from UniProt Q00987 1-491)”?
Answer: binding [1]: binds; binding [2]: binds
